Assay in all cases: co-IP; BmN4 lysates in Co-IP buffer (30 mM HEPES-KOH pH 7.3, 150 mM potassium acetate, 5 mM magnesium acetate, 5 mM DTT, 0.1% NP-40); anti-Flag M2 antibody on Dynabeads Protein G, 4 °C, 1 h; three washes; western blotting with anti-Myc and anti-Flag
Test [1] deals with Bombyx mori Vasa (BmVasa) WT (Bombyx mori) (UniProt O01378).
In test [2] the target is T1, Flag-BmVasa ΔC mutant (Bombyx mori) (UniProt O01378).
T1 sequence: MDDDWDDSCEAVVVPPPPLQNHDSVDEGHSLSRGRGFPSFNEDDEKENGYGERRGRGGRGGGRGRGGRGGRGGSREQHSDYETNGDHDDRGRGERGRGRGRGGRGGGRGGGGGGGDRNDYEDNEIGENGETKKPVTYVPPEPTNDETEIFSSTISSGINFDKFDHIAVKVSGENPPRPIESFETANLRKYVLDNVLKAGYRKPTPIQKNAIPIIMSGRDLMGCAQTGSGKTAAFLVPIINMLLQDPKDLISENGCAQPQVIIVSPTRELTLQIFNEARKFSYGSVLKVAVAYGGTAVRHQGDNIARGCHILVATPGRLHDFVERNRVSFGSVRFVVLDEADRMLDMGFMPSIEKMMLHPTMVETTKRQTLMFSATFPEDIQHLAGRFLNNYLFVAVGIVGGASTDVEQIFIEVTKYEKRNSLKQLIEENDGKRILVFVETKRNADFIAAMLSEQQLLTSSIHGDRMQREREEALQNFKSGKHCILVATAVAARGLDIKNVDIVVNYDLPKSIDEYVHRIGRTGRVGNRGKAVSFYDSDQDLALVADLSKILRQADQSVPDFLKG

Test [3] has as its target T2, Flag-BmVasa ΔN mutant (Bombyx mori) (UniProt O01378).
T2 sequence: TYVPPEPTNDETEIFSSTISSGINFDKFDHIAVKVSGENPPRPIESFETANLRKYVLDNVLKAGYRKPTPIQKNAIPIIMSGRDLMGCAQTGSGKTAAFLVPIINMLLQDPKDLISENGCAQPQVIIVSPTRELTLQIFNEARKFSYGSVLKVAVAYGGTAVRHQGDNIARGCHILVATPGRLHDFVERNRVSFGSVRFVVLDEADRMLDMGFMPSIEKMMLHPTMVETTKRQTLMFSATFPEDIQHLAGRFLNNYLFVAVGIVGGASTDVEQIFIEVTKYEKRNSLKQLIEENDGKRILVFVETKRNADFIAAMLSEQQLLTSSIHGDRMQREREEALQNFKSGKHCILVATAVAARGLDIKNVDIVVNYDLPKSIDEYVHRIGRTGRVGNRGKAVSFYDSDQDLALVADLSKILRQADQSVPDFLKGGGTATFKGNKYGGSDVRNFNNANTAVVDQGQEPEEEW

Test [4] addresses BmVasa R470A mutant (Bombyx mori) (UniProt O01378).

No constants are given. Whether binding was seen depends on the method and setting. In cells and extracts the contact can be indirect. Some binding calls cover weakened binding; strength is not graded here. For some of these results: Sequences can lack the tags named with a protein.

This passage reports binding results from article PMC10081994.

B1: Bombyx mori Vasa (BmVasa) WT (protein, UniProt O01378 1-601)
chain: MDDDWDDSCEAVVVPPPPLQNHDSVDEGHSLSRGRGFPSFNEDDEKENGYGERRGRGGRGGGRGRGGRGGRGGSREQHSDYETNGDHDDRGRGERGRGRGRGGRGGGRGGGGGGGDRNDYEDNEIGENGETKKPVTYVPPEPTNDETEIFSSTISSGINFDKFDHIAVKVSGENPPRPIESFETANLRKYVLDNVLKAGYRKPTPIQKNAIPIIMSGRDLMGCAQTGSGKTAAFLVPIINMLLQDPKDLISENGCAQPQVIIVSPTRELTLQIFNEARKFSYGSVLKVAVAYGGTAVRHQGDNIARGCHILVATPGRLHDFVERNRVSFGSVRFVVLDEADRMLDMGFMPSIEKMMLHPTMVETTKRQTLMFSATFPEDIQHLAGRFLNNYLFVAVGIVGGASTDVEQIFIEVTKYEKRNSLKQLIEENDGKRILVFVETKRNADFIAAMLSEQQLLTSSIHGDRMQREREEALQNFKSGKHCILVATAVAARGLDIKNVDIVVNYDLPKSIDEYVHRIGRTGRVGNRGKAVSFYDSDQDLALVADLSKILRQADQSVPDFLKGGGTATFKGNKYGGSDVRNFNNANTAVVDQGQEPEEEW
Take B1: the binding entry in test [1] was “binds”; in test [2], “binds”; in test [3], “no binding”.

B2: BmVasa R470A mutant (protein, UniProt O01378 1-601)
chain: MDDDWDDSCEAVVVPPPPLQNHDSVDEGHSLSRGRGFPSFNEDDEKENGYGERRGRGGRGGGRGRGGRGGRGGSREQHSDYETNGDHDDRGRGERGRGRGRGGRGGGRGGGGGGGDRNDYEDNEIGENGETKKPVTYVPPEPTNDETEIFSSTISSGINFDKFDHIAVKVSGENPPRPIESFETANLRKYVLDNVLKAGYRKPTPIQKNAIPIIMSGRDLMGCAQTGSGKTAAFLVPIINMLLQDPKDLISENGCAQPQVIIVSPTRELTLQIFNEARKFSYGSVLKVAVAYGGTAVRHQGDNIARGCHILVATPGRLHDFVERNRVSFGSVRFVVLDEADRMLDMGFMPSIEKMMLHPTMVETTKRQTLMFSATFPEDIQHLAGRFLNNYLFVAVGIVGGASTDVEQIFIEVTKYEKRNSLKQLIEENDGKRILVFVETKRNADFIAAMLSEQQLLTSSIHGDRMQREAEEALQNFKSGKHCILVATAVAARGLDIKNVDIVVNYDLPKSIDEYVHRIGRTGRVGNRGKAVSFYDSDQDLALVADLSKILRQADQSVPDFLKGGGTATFKGNKYGGSDVRNFNNANTAVVDQGQEPEEEW
Consider B2, for which, in test [4], the binding result is given as “binds”.
